Test results taken from US12516145B2 (priority 2019, dated 2026).
At least one peptide structure holds a part that was inferred or is arguable (an end, a ring closure or a residue).

Key:
[1] = test system: mitochondrial membrane potential of HeLa cells; test: Mitochondria membrane potential of HeLa cells with JC-1 probe; assay type: cell-based, human; settings: 2 μM JC-1, excitation 488 nm, NP5 even after 30 min incubation
Procedure: HeLa cells were plated in 4-well, glass bottom dishes at 30,000 cells per well in 500 μL medium. […] The cells were stained with 2 μM of JC-1 at 37° C. for 15 minutes, washed with PBS to remove any membrane-bound, non-internalized fluorophores, and returned to complete medium. For the positive control group, the cells were incubated with 50 μM CCCP and 2 μM of JC-1 probe in DPBS solution simultaneously for 15 min. Before the confocal observation, 1 drop of Hoechst 33342 dye was added to stain the nuclei. Confocal microscope was employed to observe the fluorescence of JC-1 monomer, J-aggregates and Hoechst dye.

HeLa cells = test: CellTiter-Blue cell viability assay of nanoparticles (Example 2); assay type: cell-based, human; settings: even at 200 μM, 72 h
Procedure: Fluorescence Measurement: CellTiter-Blue® fluorescence measurements were recorded using a Perkin Elmer EnSpire multimode Plate Reader.
HeLa cells were grown in Dulbecco's modified Eagle medium (DMEM) supplemented with 10% fetal bovine serum (FBS), 1% penicillin-streptomycin. Cells were maintained at 37° C. and 5% CO2 with a relative humidity of 95%. HeLa cells were plated in 96-well plates at a density of 5000 per well and then left to attach for 24 h. Subsequently, the cells were treated with the polymers of various concentrations for the desired time followed by washing 3 times with PBS. Then CellTiter-Blue® at 10% (v/v) in complete media was added to each well and incubated for 2 h to allow the live cells to convert resazurin to fluorescent resorufin. The fluorescent signal (Excitation wavelength: 560 nm; Emission wavelength: 600 nm) was then analyzed by a plate reader. Three replicates were performed for each independent sample. 10% DMSO was used as a positive control and untreated cells in complete medium as a negative control. Viability is reported as a percentage of untreated cells.

For `CC(C)C[C@H](NC(=O)[C@H](CCCCN)NC(=O)[C@H](C)NC(=O)[C@H](CC(C)C)NC(=O)[C@H](CCCCN)NC(=O)[C@H](CCCCN)NC(=O)[C@H](C)NC(=O)[C@H](CC(C)C)NC(=O)[C@H](CCCCN)NC(=O)[C@H](C)NC(=O)[C@H](CC(C)C)NC(=O)[C@@H](N)CCCCN)C(=O)N[C@@H](C)C(=O)N[C@@H](CCCCN)C(N)=O` [KLA peptide, KLAKLAKKLAKLAK, reference compound], the “red fluorescence of JC-1 J-aggregates (mitochondrial membrane potential)” value [1] was “strong red fluorescence” and the “toxicity in HeLa cells at high concentration” value (HeLa cells) was “no toxicity”.
